In the supplement of paper PMC3334620:
In all, about 33,000 sequences were measured (“E-score (-0.5 to 0.5)”: median about -0.0034, highest 2% from about 0.25 on). Some of the results follow.

Molecular target: T1, Yap3 (UniProt P38749)
T1 sequence: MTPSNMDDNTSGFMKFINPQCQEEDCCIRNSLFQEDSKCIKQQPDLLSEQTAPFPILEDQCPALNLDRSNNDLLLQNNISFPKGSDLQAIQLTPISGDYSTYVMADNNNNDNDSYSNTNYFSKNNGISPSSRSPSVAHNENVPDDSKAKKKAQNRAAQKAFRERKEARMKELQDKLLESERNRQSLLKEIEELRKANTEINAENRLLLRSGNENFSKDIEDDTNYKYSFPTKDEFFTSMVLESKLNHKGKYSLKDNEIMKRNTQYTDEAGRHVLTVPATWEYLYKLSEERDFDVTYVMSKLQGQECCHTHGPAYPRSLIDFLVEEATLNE
Experiment: PBM E-score (8-mer binding enrichment) (E-score (-0.5 to 0.5)); higher = stronger / more preferred TF binding
Conditions: protein concentration: 100 nM; construct: GST-full length
Method in brief: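 The E-score, a modified Wilcoxon-Mann-Whitney statistic, was computed by the Universal PBM Analysis Suite for every ungapped eight-base word pooled with its reverse complement. Scans behind it were normalised with masliner after bound GST-tagged yeast transcription factors were detected with fluorescent anti-GST. The proteins, at about 100-200 nM, had been applied to universal all-10-mer Agilent arrays made double-stranded by primer extension.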

| Sequence | PBM E-score |
| --- | --- |
| CGGAGGGC | -0.241 |
| ACATTAAT | 0.122 |
| CTTCAATC | -0.0554 |
| TCCGACGA | 0.0438 |
| TGCGTCAA | 0.0343 |
| CAATTCCC | 0.0681 |
| CATTGCAC | 0.131 |
| AACCTAGC | 0.0358 |
| CCGTTGGA | -0.226 |
| AGAGAGAG | -0.146 |
| GATTGTCA | 0.0887 |
| ATAACCCA | 0.0269 |
| AAGCTGTA | 0.189 |
| ATTGAGCA | 0.105 |
| GTACAAGA | 0.0226 |
| AGCTGTTA | 0.0511 |
| CAAATAGA | 0.234 |
| CTCCTAGA | -0.141 |
| AGAACCCT | -0.224 |
| AAAATGAC | 0.13 |
| ACCCTCGA | -0.182 |
| CGTACCAA | 0.21 |
| CTCTGTGA | -0.0518 |
| AAACAGCG | 0.2 |
| GTGGACGA | -0.00243 |

| Sequence | PBM E-score |
| --- | --- |
| ACCACGAA | -0.0824 |
| ACGTGATG | 0.134 |
| ATCCGAAC | 0.0611 |
| AGCTTTCC | -0.0722 |
| AGAGCCGA | -0.0137 |
| CTAGTACA | 0.0825 |
| GGCTATTA | 0.089 |
| AGGTGAGA | 0.0969 |
| AAATACTG | 0.109 |
| ACTGCGCG | 0.0476 |
| AGGGAAGA | -0.109 |
| AGCCGTCG | 0.0233 |
| CATACGGG | -0.177 |
| CAAGTATA | -0.0229 |
| CACGGAGG | -0.0561 |
| CTCACTGC | -0.153 |
| AGGAAAAC | -0.0628 |
| ATGGCAGC | -0.042 |
| ATGGATAA | 0.131 |
| CATGTAGG | -0.0745 |
| AGGGAATC | 0.0631 |
| ATAACGAT | 0.109 |
| GACTATTA | 0.0619 |
| TTTAAAAA | 0.0194 |
| GATGAACC | -0.0269 |

| Sequence | PBM E-score |
| --- | --- |
| ATAGTCCG | -0.00665 |
| GATGGGCC | -0.31 |
| CGAACAAC | 0.253 |
| ATAATACA | 0.357 |
| CGTCAGCC | -0.0455 |
| AGTCATAG | 0.0107 |
| TGAACACA | -0.0712 |
| GATGGCTA | 0.0169 |
| TAAGAGAA | 0.0173 |
| AGGCTAGC | -0.0851 |
| AGTTCTAG | -0.101 |
| CCCTTTCG | -0.0948 |
| AACTTCAC | 0.114 |
| AAAGACAC | 0.0953 |
| ATACTACC | 0.0377 |
| AACTGGGG | -0.0749 |
| CAGCCAAG | -0.111 |
| ATGTAACG | 0.164 |
| AGAACTTA | 0.0979 |
| AATTCCCA | 0.115 |
| GTTAGAGA | -0.183 |
| CTCTACTC | 0.0355 |
| AAACTAGA | -0.036 |
| AGACCATG | -0.238 |
| CTTTCGAA | -0.0968 |

| Sequence | PBM E-score |
| --- | --- |
| ATAGGTAC | 0.0413 |
| ACCTAGGG | -0.0254 |
| AGATGGTA | 0.133 |
| CACGGGTA | -0.0576 |
| CAAGGGAC | -0.0565 |
| AAACGTAA | 0.24 |
| ATATCACA | 0.0519 |
| ACCCTTAG | -0.161 |
| ATCGTTCC | -0.0403 |
| TATTCAGA | 0.11 |
| AGCGTCTG | -0.159 |
| GCGGGACA | -0.117 |
| AGTTACAT | 0.0747 |
| CGTGGCGC | -0.221 |
| CTGCTAAA | 0.0134 |
| AAAGGATG | 0.092 |
| AAAAAGCA | 0.127 |
| GAGTTCAC | -0.0826 |
| TACCAATA | 0.132 |
| TCACTACA | 0.127 |
| CCCCCTAA | -0.291 |
| AAAGTCAC | 0.117 |
| CCACATAG | 0.0179 |
| AAACGAAT | 0.18 |
| AGAACGAC | 0.0859 |

Four records picked at random from those above, as already listed:

| Sequence | PBM E-score |
| --- | --- |
| CACGGGTA | -0.0576 |
| GCGGGACA | -0.117 |
| CCCCCTAA | -0.291 |
| AGAACGAC | 0.0859 |

A second format for some results above.
Sequence,PBM E-score
ACCTAGGG,-0.0254
CAAGGGAC,-0.0565
CGTGGCGC,-0.221

More entries follow.

| Sequence | PBM E-score |
| --- | --- |
| CTTAGCGC | 0.171 |
| CAGTAAGG | -0.0314 |
| TCGGATCA | 0.0489 |
| CTCCTGAC | 0.00138 |
| CGCTCGAC | -0.146 |
| CAGGTATG | 0.13 |
| AGTATTGG | 0.00423 |
| ACCGTGCT | -0.295 |
| GGACCGCC | -0.348 |
| GTCGGTCA | -0.0651 |
| CACGAGAC | -0.0708 |
| CCGAACTA | 0.0209 |
| ATTCAGAG | 0.0415 |
| CGTATCAG | 0.00689 |
| AGAATCGA | 0.0567 |
| ACGCCTAG | -0.0426 |
| AAACGGTT | -0.141 |
| CGGGTCAC | -0.134 |
| AAAGTCCG | -0.0247 |
| AACTTGGT | 0.117 |
| ACCTCCAT | -0.182 |
| CCCGTTCG | -0.0649 |
| AGACTGAA | -0.0205 |
| TAACGTAA | 0.242 |
| ATCCAGCC | -0.144 |

In another format: results already given.
Sequence	PBM E-score
GTCGGTCA	-0.0651
CACGAGAC	-0.0708

Next entries.

| Sequence | PBM E-score |
| --- | --- |
| CTTATGTA | 0.216 |
| ACACGCGA | 0.0551 |
| CCCGGACA | -0.0536 |
| TAGATTCA | -0.175 |
| GTGCCGTA | 0.033 |
| GGTACGCA | 0.0349 |
| CAACTAGC | 0.14 |
| GTGCGTCA | -0.0417 |
| CTTTTAAC | 0.0122 |
| CGGACAGA | -0.0317 |
| CCTATTAA | 0.0368 |
| AATATGAC | 0.223 |
| AGCCAATG | -0.0551 |
| ACCGTTAG | 0.0694 |
| CTCTCAGA | -0.117 |
| ACTCGTGG | -0.0605 |
| CAGATAAC | 0.0953 |
| AATTATTG | 0.195 |
| GAGGAGGA | -0.253 |
| CCCTGCCG | -0.28 |
| GTGTCGTA | 0.111 |
| ACCGGTAA | -0.0317 |
| GTGAGAAA | 0.0709 |
| CCGCCAAC | -0.142 |
| CCACGGGG | -0.418 |

| Sequence | PBM E-score |
| --- | --- |
| AAACAACC | 0.078 |
| GTTAGAAA | 0.0327 |
| AAAGAGTT | 0.0207 |
| GCCGTACA | 0.0668 |
| CCCGCATA | 0.168 |
| CTTAAGCA | -0.0399 |
| ATTTCTGC | 0.231 |
| AGAGAGGA | -0.261 |
| CACCGCTC | -0.0925 |
| CAGTAGTC | -0.245 |
| GTCGAACA | 0.0887 |
| ACTTTGAA | 0.0353 |
| ACTTAGCG | 0.161 |
| AGGCAAAC | -0.027 |
| ATCACCAC | 0.138 |
| ATAAGGGC | 0.112 |
| GGAGTGAC | -0.0383 |
| CAGAGAGG | -0.208 |
| CCTTCTCG | -0.134 |
| GTGCACGA | 0.0909 |
| ATGATATG | 0.253 |
| ACACAGTA | -0.0354 |
